The term inhibition denotes how much of the control response was suppressed.

Among the data in PubChem BioAssay are inhibition values, retold here.

This is a selection; strong and weak results do not stand in their true shares. Activity calls are given as the source filed them.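 The calls were made as follows: active = inhibition reaching about 45% at 4 µM in either replicate (limit read from the data); inactive = the rest.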

The nature of this experiment: PMA/ionomycin-induced NF-kB reporter inhibitors, Jurkat retest, confirmation, T-cell NF-kB inhibitor project, cell-based, luminescence, single concentration (AID 435020).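 Also: plate controls were PMA/ionomycin stimulated DMSO wells for no effect and unstimulated DMSO wells for full effect.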 As to conditions: Jurkat NF-kB luciferase, 16 h, at 4 µM, hits give high values.

Turning to `CN[C@H]1C[C@H]2O[C@@](C)([C@H]1OC)n1c3ccccc3c3c4c(c5c6ccccc6n2c5c31)C(=O)NC4`, the inhibition is active: 99.9%.
